# These are yes or no findings as the source states them, for the method shown. Binding seen in cells or lysates may run through a third protein. Some results given as binding are weak or reduced against the parent protein; the word gives no strength.
# Amino acid sequences for entries named in this document (tags omitted).
# UniProt O05442: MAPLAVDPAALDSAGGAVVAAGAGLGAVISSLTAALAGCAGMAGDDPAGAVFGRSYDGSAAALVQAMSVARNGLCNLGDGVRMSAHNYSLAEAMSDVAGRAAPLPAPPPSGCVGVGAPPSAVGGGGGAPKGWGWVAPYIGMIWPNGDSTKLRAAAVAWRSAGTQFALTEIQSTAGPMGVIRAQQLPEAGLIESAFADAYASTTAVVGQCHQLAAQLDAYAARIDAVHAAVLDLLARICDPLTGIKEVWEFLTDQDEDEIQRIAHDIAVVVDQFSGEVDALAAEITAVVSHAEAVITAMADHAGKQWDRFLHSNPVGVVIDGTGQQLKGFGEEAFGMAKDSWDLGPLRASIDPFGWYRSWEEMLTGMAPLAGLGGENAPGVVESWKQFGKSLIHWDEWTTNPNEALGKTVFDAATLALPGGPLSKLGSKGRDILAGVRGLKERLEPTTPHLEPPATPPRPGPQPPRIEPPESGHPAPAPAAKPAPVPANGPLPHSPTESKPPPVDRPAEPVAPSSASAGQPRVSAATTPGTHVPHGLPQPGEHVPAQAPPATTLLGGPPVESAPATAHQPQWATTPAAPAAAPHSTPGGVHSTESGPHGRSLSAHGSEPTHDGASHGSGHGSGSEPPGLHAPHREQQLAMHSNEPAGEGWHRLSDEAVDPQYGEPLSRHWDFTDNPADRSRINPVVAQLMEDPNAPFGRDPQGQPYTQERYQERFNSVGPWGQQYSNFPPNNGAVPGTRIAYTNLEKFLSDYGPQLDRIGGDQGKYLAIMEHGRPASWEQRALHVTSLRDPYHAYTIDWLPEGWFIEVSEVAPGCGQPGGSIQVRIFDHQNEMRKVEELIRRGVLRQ
# Target: CpnT (channel protein with necrosis-inducing toxin) (Mycobacterium tuberculosis) (UniProt O05442)
# Test: cross-linking
substance,measurement,value
CpnT (channel protein with necrosis-inducing toxin) (from UniProt O05442 1-846),binding,binds

# — paper PMC7810871
